Source: paper PMC3830475
These are yes or no findings as the source states them, for the method shown. A result given as binding can be weak or reduced; the word gives no strength.

How the values were obtained:
[1] = target: T1, ERS1 (residues 130–613) (Arabidopsis) (UniProt Q38846); assay: two-hybrid; yeast strain L40; ETR1^331–729 or ERS1^130–613 in pBTM116 co-expressed with OsCTR2^1–513 in pGADT7; growth in the presence of high 3-amino-1,2,4-triazole concentrations, X-gal staining (80 mg/l, 24 h, 30 °C) and β-galactosidase activity with chlorophenol red–β-D-galactopyranoside
T1 sequence: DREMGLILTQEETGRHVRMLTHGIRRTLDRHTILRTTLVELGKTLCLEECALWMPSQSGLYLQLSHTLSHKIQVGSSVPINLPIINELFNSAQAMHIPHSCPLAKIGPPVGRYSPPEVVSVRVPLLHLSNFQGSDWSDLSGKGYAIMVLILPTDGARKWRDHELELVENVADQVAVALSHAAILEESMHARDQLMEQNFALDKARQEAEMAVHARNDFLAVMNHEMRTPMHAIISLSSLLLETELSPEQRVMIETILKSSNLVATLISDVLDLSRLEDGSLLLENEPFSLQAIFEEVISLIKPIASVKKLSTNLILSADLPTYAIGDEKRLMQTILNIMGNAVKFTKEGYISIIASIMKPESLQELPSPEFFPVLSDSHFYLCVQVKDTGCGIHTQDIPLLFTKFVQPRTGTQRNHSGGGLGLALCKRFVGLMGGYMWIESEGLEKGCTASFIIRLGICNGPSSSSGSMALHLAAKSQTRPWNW

[2] = target: T2, ETR1 (residues 331–729) (Arabidopsis) (UniProt P49333); assay: as above
T2 sequence: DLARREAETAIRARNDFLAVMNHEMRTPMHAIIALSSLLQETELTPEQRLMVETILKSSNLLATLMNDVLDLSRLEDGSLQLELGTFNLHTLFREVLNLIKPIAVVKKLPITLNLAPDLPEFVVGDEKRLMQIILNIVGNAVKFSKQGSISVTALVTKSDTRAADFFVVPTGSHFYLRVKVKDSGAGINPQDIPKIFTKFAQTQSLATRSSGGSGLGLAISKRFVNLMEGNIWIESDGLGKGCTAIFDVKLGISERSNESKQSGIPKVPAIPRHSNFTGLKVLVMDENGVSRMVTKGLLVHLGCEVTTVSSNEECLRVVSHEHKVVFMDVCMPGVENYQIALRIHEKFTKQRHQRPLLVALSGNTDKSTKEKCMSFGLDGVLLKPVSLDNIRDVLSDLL

binding [1]: binds | binding [2]: binds
Substance: OsCTR2 N terminus (residues 1–513) (rice) (domain or fragment)
